From the supplement of paper PMC6078165

Assays:
HCC1143 = experiment: relative JC-1 red fluorescence (viability) vs pre-drug, monoculture (fraction); higher = more viable cancer cells; conditions: coculture fibroblast: none (monoculture)
Method: (§1)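 JC-1 labelled TNBC cells grown in monoculture (density kept equal with unlabelled cancer cells) in 384-well plates in FluoroBrite medium, treated with one of 42 anticancer drugs at 0.1, 1, 10 or 100 uM. JC-1 red fluorescence (mitochondrial integrity, surrogate of apoptotic death) was read by plate reader every 8 h for 72 h. Values are normalised to each well's pre-drug value, with background from alamethicin. The stock of one drug was tenfold lower, so its dose labels may be too high. Monoculture values are repeated alongside each fibroblast plate and are averaged here.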

Hs578T = experiment: as above; conditions: coculture fibroblast: none (monoculture)
Method: as §1

CC[C@]1(O)C[C@@H]2CN(CCc3c([nH]c4ccccc34)[C@@](C(=O)OC)(c3cc4c(cc3OC)N(C)[C@H]3[C@@](O)(C(=O)OC)[C@H](OC(C)=O)[C@]5(CC)C=CCN6CC[C@]43[C@@H]65)C2)C1 [Vinblastine]
relative JC-1 red fluorescence
Conditions | 8 h | 16 h | 24 h | 32 h | 40 h | 48 h | 56 h | 64 h | 72 h
HCC1143, 0.1 µM | 0.9254 ± 0.0039 | 0.7761 ± 0.0048 | 0.753 ± 0.015 | 0.709 ± 0.0076 | 0.67 ± 0.0078 | 0.6405 ± 0.0039 | 0.621 ± 0.017 | 0.612 ± 0.021 | 0.606 ± 0.021
HCC1143, 1 µM | 0.89909 ± 0.00031 | 0.824 ± 0.013 | 0.757 ± 0.028 | 0.709 ± 0.039 | 0.661 ± 0.043 | 0.633 ± 0.056 | 0.602 ± 0.059 | 0.59 ± 0.074 | 0.571 ± 0.075
HCC1143, 10 µM | 0.889 ± 0.016 | 0.828 ± 0.021 | 0.795 ± 0.023 | 0.742 ± 0.028 | 0.698 ± 0.021 | 0.663 ± 0.025 | 0.631 ± 0.029 | 0.607 ± 0.017 | 0.58 ± 0.013
HCC1143, 100 µM | 0.678 ± 0.045 | 0.4402 ± 0.0031 | 0.275 ± 0.025 | 0.181 ± 0.018 | 0.138 ± 0.0054 | 0.111 ± 0.008 | 0.0914 ± 0.0066 | 0.0763 ± 0.0075 | 0.0671 ± 0.0019
Hs578T, 0.1 µM | 0.8443 ± 0.0042 | 0.6691 ± 0.0051 | 0.657 ± 0.015 | 0.57 ± 0.022 | 0.534 ± 0.027 | 0.503 ± 0.027 | 0.478 ± 0.033 | 0.469 ± 0.031 | 0.467 ± 0.031
Hs578T, 1 µM | 0.876 ± 0.0013 | 0.758 ± 0.015 | 0.687 ± 0.022 | 0.596 ± 0.025 | 0.565 ± 0.019 | 0.549 ± 0.019 | 0.527 ± 0.018 | 0.532 ± 0.011 | 0.526 ± 0.009
Hs578T, 10 µM | 0.756 ± 0.033 | 0.648 ± 0.032 | 0.607 ± 0.038 | 0.534 ± 0.046 | 0.494 ± 0.023 | 0.48 ± 0.029 | 0.455 ± 0.035 | 0.441 ± 0.032 | 0.43 ± 0.029
Hs578T, 100 µM | 0.52 ± 0.012 | 0.206 ± 0.0059 | 0.14 ± 0.0022 | 0.0773 ± 0.0014 | 0.0537 ± 0.00055 | 0.0403 ± 0.0024 | 0.0327 ± 0.0024 | 0.0308 ± 0.0037 | 0.025 ± 0.0027

± gives the standard deviation of the averaged measurements. Values are relative to the signal before dosing, not to a vehicle control; the signal also falls without drug.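 The cancer cells are triple-negative breast cancer lines of basal-like or mesenchymal-like type, grown without fibroblasts. A drop in red signal reflects loss of mitochondrial integrity, a stand-in for apoptotic death.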
